Where two headings read alike, the source gives them in different places. These are yes or no findings as the source states them, for the method shown. In cells and extracts the contact can be indirect. A yes stands for co-enrichment or nearness to the bait. Other partners may have been found.
B1: TAK1 (protein, UniProt O43318 1-606)
chain: MSTASAASSSSSSSAGEMIEAPSQVLNFEEIDYKEIEVEEVVGRGAFGVVCKAKWRAKDVAIKQIESESERKAFIVELRQLSRVNHPNIVKLYGACLNPVCLVMEYAEGGSLYNVLHGAEPLPYYTAAHAMSWCLQCSQGVAYLHSMQPKALIHRDLKPPNLLLVAGGTVLKICDFGTACDIQTHMTNNKGSAAWMAPEVFEGSNYSEKCDVFSWGIILWEVITRRKPFDEIGGPAFRIMWAVHNGTRPPLIKNLPKPIESLMTRCWSKDPSQRPSMEEIVKIMTHLMRYFPGADEPLQYPCQYSDEGQSNSATSTGSFMDIASTNTSNKSDTNMEQVPATNDTIKRLESKLLKNQAKQQSESGRLSLGASRGSSVESLPPTSEGKRMSADMSEIEARIAATTAYSKPKRGHRKTASFGNILDVPEIVISGNGQPRRRSIQDLTVTGTEPGQVSSRSSSPSVRMITTSGPTSEKPTRSHPWTPDDSTDTNGSDNSIPMAYLTLDHQLQPLAPCPNSKESMAVFEQHCKMAQEYMKVQTEIALLLQRKQELVAELDQDEKDQQNTSRLVQEHKKLLDENKSLSTYYQQCKKQLEVIRSQQQKRQGTS
B2: IKKe (protein, UniProt Q14164 1-716)
chain: MQSTANYLWHTDDLLGQGATASVYKARNKKSGELVAVKVFNTTSYLRPREVQVREFEVLRKLNHQNIVKLFAVEETGGSRQKVLVMEYCSSGSLLSVLESPENAFGLPEDEFLVVLRCVVAGMNHLRENGIVHRDIKPGNIMRLVGEEGQSIYKLTDFGAARELDDDEKFVSVYGTEEYLHPDMYERAVLRKPQQKAFGVTVDLWSIGVTLYHAATGSLPFIPFGGPRRNKEIMYRITTEKPAGAIAGAQRRENGPLEWSYTLPITCQLSLGLQSQLVPILANILEVEQAKCWGFDQFFAETSDILQRVVVHVFSLSQAVLHHIYIHAHNTIAIFQEAVHKQTSVAPRHQEYLFEGHLCVLEPSVSAQHIAHTTASSPLTLFSTAIPKGLAFRDPALDVPKFVPKVDLQADYNTAKGVLGAGYQALRLARALLDGQELMFRGLHWVMEVLQATCRRTLEVARTSLLYLSSSLGTERFSSVAGTPEIQELKAAAELRSRLRTLAEVLSRCSQNITETQESLSSLNRELVKSRDQVHEDRSIQQIQCCLDKMNFIYKQFKKSRMRPGLGYNEEQIHKLDKVNFSHLAKRLLQVFQEECVQKYQASLVTHGKRMRVVHETRNHLRLVGCSVAACNTEAQGVQESLSKLLEELSHQLLQDRAKGAQASPPPIAPYPSPTRKDLLLHMQELCEGMKLLASDLLDNNRIIERLNRVPAPPDV
B3: A20 (protein, UniProt P21580)
chain: MAEQVLPQALYLSNMRKAVKIRERTPEDIFKPTNGIIHHFKTMHRYTLEMFRTCQFCPQFREIIHKALIDRNIQATLESQKKLNWCREVRKLVALKTNGDGNCLMHATSQYMWGVQDTDLVLRKALFSTLKETDTRNFKFRWQLESLKSQEFVETGLCYDTRNWNDEWDNLIKMASTDTPMARSGLQYNSLEEIHIFVLCNILRRPIIVISDKMLRSLESGSNFAPLKVGGIYLPLHWPAQECYRYPIVLGYDSHHFVPLVTLKDSGPEIRAVPLVNRDRGRFEDLKVHFLTDPENEMKEKLLKEYLMVIEIPVQGWDHGTTHLINAAKLDEANLPKEINLVDDYFELVQHEYKKWQENSEQGRREGHAQNPMEPSVPQLSLMDVKCETPNCPFFMSVNTQPLCHECSERRQKNQNKLPKLNSKPGPEGLPGMALGASRGEAYEPLAWNPEESTGGPHSAPPTAPSPFLFSETTAMKCRSPGCPFTLNVQHNGFCERCHNARQLHASHAPDHTRHLDPGKCQACLQDVTRTFNGICSTCFKRTTAEASSSLSTSLPPSCHQRSKSDPSRLVRSPSPHSCHRAGNDAPAGCLSQAARTPGDRTGTSKCRKAGCVYFGTPENKGFCTLCFIEYRENKHFAAASGKVSPTASRFQNTIPCLGRECGTLGSTMFEGYCQKCFIEAQNQRFHEAKRTEEQLRSSQRRDVPRTTQSTSRPKCARASCKNILACRSEELCMECQHPNQRMGPGAHRGEPAPEDPPKQRCRAPACDHFGNAKCNGYCNECFQFKQMYG

Chains of the proteins cited; added tags and fusions are not shown. Residues count along the entry.
UniProt P01375, residues 77-233: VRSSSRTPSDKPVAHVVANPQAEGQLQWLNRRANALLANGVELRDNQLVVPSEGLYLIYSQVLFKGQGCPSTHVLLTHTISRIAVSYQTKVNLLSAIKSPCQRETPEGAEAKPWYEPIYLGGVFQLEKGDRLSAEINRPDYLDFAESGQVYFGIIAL
UniProt Q9UHD2: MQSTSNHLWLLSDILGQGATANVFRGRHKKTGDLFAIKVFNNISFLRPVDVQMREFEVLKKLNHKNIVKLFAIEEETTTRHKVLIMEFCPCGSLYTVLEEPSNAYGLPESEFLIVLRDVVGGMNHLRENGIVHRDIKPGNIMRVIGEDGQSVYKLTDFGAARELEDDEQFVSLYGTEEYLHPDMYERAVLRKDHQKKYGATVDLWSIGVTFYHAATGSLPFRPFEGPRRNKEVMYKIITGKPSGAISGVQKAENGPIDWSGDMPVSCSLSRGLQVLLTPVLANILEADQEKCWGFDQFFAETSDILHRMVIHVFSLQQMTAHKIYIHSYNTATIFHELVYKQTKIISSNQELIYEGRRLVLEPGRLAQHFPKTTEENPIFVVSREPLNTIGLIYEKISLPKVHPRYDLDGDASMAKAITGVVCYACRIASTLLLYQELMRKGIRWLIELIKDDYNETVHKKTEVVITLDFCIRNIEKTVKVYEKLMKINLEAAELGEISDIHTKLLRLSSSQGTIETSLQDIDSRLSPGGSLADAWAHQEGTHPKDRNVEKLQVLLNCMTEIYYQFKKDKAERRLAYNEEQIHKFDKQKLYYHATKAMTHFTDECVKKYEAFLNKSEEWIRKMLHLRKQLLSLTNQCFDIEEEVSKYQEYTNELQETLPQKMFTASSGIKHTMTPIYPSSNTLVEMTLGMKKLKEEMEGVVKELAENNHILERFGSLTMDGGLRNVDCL

How the values were obtained:
biotinylated TNF [1] = target: biotinylated TNF (UniProt P01375); test: affinity purification with mass spectrometry
biotinylated TNF [2] = target: biotinylated TNF (UniProt P01375); test: affinity purification with mass spectrometry; remark: listed apart in the source

Row | Molecule | binding (biotinylated TNF [1]) | binding (biotinylated TNF [2])
1 | TBK1 (from UniProt Q9UHD2 1-729) | binds | 
2 | B1 |  | binds
3 | B2 |  | binds
4 | B3 |  | binds

Reference: publication doi:10.1101/2025.05.20.655064
